## Library screening results

The chains behind the UniProt entries cited, without tags or fusion partners.
UniProt E9BF75, entry or part of it: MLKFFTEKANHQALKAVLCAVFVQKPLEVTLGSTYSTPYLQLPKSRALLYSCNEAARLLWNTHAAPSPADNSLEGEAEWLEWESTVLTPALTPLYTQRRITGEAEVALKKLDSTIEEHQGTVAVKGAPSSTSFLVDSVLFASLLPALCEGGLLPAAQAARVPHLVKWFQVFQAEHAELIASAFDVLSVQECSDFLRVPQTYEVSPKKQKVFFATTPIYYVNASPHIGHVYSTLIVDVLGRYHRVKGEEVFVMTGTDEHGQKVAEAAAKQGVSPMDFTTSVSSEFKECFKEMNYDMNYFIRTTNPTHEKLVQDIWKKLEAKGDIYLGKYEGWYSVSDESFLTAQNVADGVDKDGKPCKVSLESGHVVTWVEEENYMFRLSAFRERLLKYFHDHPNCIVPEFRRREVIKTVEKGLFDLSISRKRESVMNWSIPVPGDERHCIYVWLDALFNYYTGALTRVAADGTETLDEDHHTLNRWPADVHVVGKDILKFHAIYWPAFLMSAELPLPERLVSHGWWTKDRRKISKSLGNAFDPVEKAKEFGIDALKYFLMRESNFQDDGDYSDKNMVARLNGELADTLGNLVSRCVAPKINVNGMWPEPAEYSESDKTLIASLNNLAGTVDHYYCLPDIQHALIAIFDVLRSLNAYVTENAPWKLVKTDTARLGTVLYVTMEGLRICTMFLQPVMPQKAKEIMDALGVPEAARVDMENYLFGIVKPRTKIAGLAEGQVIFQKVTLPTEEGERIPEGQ

Data taken from ChEMBL document CHEMBL3988442, “University of Dundee, Small-Polar-MMV Screening Library” (2021).

All values are in %. How 0% and 100% were set is not recorded. Most values in the screen are low, and negative values occur. The compounds are a random part of those screened.

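Primary screen of methionyl-tRNA synthetase; the read-out is not stated. Target: Methionyl-tRNA synthetase (putative), Leishmania donovani (UniProt E9BF75). The test concentration is not given. The values are filed as inhibition. Size under these conditions: about 68,000 compounds, about 24 of them at 50% or above in at least one test.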

SMILES	inhibition
CO[C@@H]1CN(c2ccccc2)S(=O)(=O)[C@@]12CCNC2	6.216
CN1CCOC(CNC(=O)CCCc2ccccc2)C1 (configuration not stated)	14.8
COc1cccc(S(=O)(=O)NC2CNC(=O)C2)c1 (configuration not stated)	9.36
CCOC(=O)N1CCN(C(=O)C(C)n2ccnc2C(C)C)CC1 (configuration not stated)	11.87
O=c1[nH][nH]cc1-c1ccnc(NCCCN2CCOCC2)n1	11.41
Cc1ccc(N2CC[C@H]3O[C@@H](C(=O)NCc4ccco4)CC[C@H]32)nn1	16.74
CN(CC(=O)NC1(C)CCS(=O)(=O)C1)Cc1ccc(Br)cc1 (configuration not stated)	4.913
CCn1ccc(C(=O)Nc2ccc3c(c2)C(C)(C)C(=O)N3C)n1	18.13
CN1CCC(Cc2nc(-c3cnccn3)n(Cc3ccccc3)n2)CC1	-0.7732
COCCNc1ncc(-c2onc(C)c2C)c(-c2ccco2)n1	8.1
O=C(CC1CCN(c2ncnc3cccc(F)c23)CC1)N1CCCC1	5.645
CC(C)Cc1cc(C(=O)N2CCCN(c3ncccn3)CC2)[nH]n1	16.33
O=C(CCNc1ncccn1)N1CCCN(c2nccs2)CC1	4.601
COCC(C)(C)NS(=O)(=O)C1CS(=O)(=O)c2ccccc21 (configuration not stated)	13.83
O=C(NCc1ccco1)N(CCCO)C1CCCc2ccccc21 (configuration not stated)	12.65
Cc1ccc(Cl)cc1C(=O)N1CCC2(CC1)c1ccccc1[C@@H](N)[C@@H]2O	19.2
CC(=O)Nc1ccc([C@@H](O)[C@H]2COCC(=O)N2CC(C)C)cc1	9.023
CN(C)[C@H]1CCCCN(C(=O)COCc2nc3cc(F)ccc3[nH]2)C1	6.977
Cc1oc(-c2ccco2)nc1CNC1CCCN(c2cccnn2)C1 (configuration not stated)	10.22
CC(C)c1nsc(N2CCn3c(nnc3C(F)(F)F)C2)n1	14.49
CCOCC(=O)N1CCCn2c(nnc2Cn2cccc2)C1	-14.11
CC(C)COCC(NC(=O)c1ccncc1)c1ccco1 (configuration not stated)	8.896
COc1cccc(CNc2cc(CO)ccc2Cl)c1	6.052
O=C(COC1CCCCC1)Nc1ccn(CCc2ccncc2)n1	10.31
CCc1cc(C(F)(F)F)c2c(C)nn(CC(=O)O)c2n1	10.84
O=C(Oc1ccccc1)N1CCC(CNS(=O)(=O)c2cccnc2)CC1	4.969
CNc1ncccc1C(=O)N1CCN(C)C2(CCN(C)CC2)C1	6.516
COc1ccc(CN2CCC3(CC2)CCN(c2cnn(C)c2)C3=O)cc1	12
CC(C(=O)N1CCC(Nc2cccnn2)CC1)n1ccnc1 (configuration not stated)	9.15
Cc1cc2ccccc2n1CCC(=O)NCCCc1nnc(N)s1	3.683
c1cnn(CC2CCCCN2Cc2nc(-c3ccoc3)no2)c1 (configuration not stated)	13.01
COc1ccc2nnc(CCCC(=O)NCc3ccccc3)n2n1	6.977
CCC(C)(C)C(=O)Nc1ccc2ccn(CC(=O)NC)c2c1	9.164
CCN1CCCC(O)(c2nc(C)c(CCOc3ccccc3F)s2)CC1 (configuration not stated)	9.032
CCc1nc2ccccc2c(=O)n1CC1(O)CCN(C(=O)COC)CC1	3.125
CCN(Cc1ccoc1)C(=O)c1cc(C)c(C)c(S(N)(=O)=O)c1	5.263
Cn1nccc1C(=O)NCCN1CCC(O)(c2ccc(F)cc2)CC1	10.31
Cc1nn(C)c(C)c1CC(=O)N1CCCC(n2cccn2)C1 (configuration not stated)	7.087
Cc1ccc(C2COCCN2C(=O)c2ccc(CN(C)C)cc2)o1 (configuration not stated)	10.73
CN(Cc1ccco1)C(=O)C1CSCN1C(=O)c1cccnc1 (configuration not stated)	7.874
CN(C)C(=O)C1CN(Cc2c[nH]cn2)CCN(C2CCOCC2)C1 (configuration not stated)	20.89
CC(SCc1ccc(Br)c2cccnc12)C(N)=O (configuration not stated)	12.58
O[C@@H]1C[C@@](CNCc2cccc(Cl)c2)(COc2cccnc2)C[C@@H]1O	1.695
CC(C)(C)C(=O)NCCC1CN(Cc2ccccc2F)CCO1 (configuration not stated)	9.317
CC(=O)Nc1ncc(S(=O)(=O)Nc2ccccc2)s1	24.87
O=C(C1CCOC1)N1C[C@H]2CN(Cc3cccc(F)c3)C(=O)[C@H]2C1 (some centres not stated)	12.9
CSc1ccc2cc(CN(C)CCc3cn[nH]c3)c(=O)[nH]c2c1	1.045
O=C(CN1CCCC1=O)N1CCC(O)(Cn2ccc3ccncc32)CC1	16.83
c1ccc(CN2CCc3ncnc(C4CC4)c3CC2)cc1	8.589
COc1ccc(Cl)cc1-n1c(COC(C)C)n[nH]c1=O	10.8
CC(CO)(NC(=O)Nc1nnc(C(F)F)s1)C1CC1 (configuration not stated)	-2.486
CC(C)c1nccn1C(C)C(=O)N1CCN(c2ccccc2Cl)CC1 (configuration not stated)	14.03
COCCC(=O)N[C@H]1CN(c2nc(C)c3c(n2)CCCC3)C[C@@H]1C1CC1	4.192
Cc1cc2cc(C(=O)N3C[C@H](O)[C@]4(CCCO4)C3)ccc2o1	11.06
COc1ncccc1C(=O)N1CCC2(CC1)CC(OC)CO2 (configuration not stated)	8.312
CCc1ncc(CN2CCCN(CC3CC3)C(C(C)C)C2)cn1 (configuration not stated)	10.45
CCc1cccc(OC2CN(C(=O)[C@@H](N)CCSC)C2)c1	0.274
CCN(CCC(=O)OC)C(=O)c1cccc(Cn2nc(C)cc2C)c1	1.863
CCS(=O)(=O)N1CCc2ccc(NC(=O)Nc3ccccc3)cc21	3.944
CCc1cc(CN(C)C(=O)c2cnn[nH]2)on1	12.64
Cc1csc(CN2CC[C@H]3C[C@@H](c4noc(C)n4)O[C@@H]3C2)n1	14.38
CC(C)c1noc(CS(=O)(=O)CC(=O)NCC(F)(F)F)n1	9.893
CC(=O)N1CCOCC2(CN(Cc3ccc(C)o3)CCO2)C1 (configuration not stated)	4.53
NC(=O)Nc1cccc(C(=O)N(Cc2ccncc2)C2CC2)c1	9.355
CNc1cc(N2CCCC2CNCc2cccc(C#N)c2)ncn1 (configuration not stated)	11.72
CC(C)NC(=O)c1ccc2c(c1)C(c1nc[nH]n1)CN2C (configuration not stated)	3.846
O=C(O)C1CCCN1c1nc(-c2ccc(Cl)c(Cl)c2)cc(C(F)(F)F)n1 (configuration not stated)	2.089
CCn1cc(CN2CCC(CN3CCCCC3)CC2)cc1C#N	19.05
COc1ccc(C(NC(=O)c2cccc[n+]2[O-])C2CC2)cc1 (configuration not stated)	15.07
COCC(=O)N1CCC(O)(CN2CCN(c3ccccc3)CC2)C1 (configuration not stated)	9.974
Cn1ncnc1-c1ccnc(N2CCC(C(O)c3cccs3)CC2)n1 (configuration not stated)	11.87
CC(C)OC(=O)N1CCC(Cc2ccc(C(=O)O)cc2)C1 (configuration not stated)	-1.25
CN(Cc1ccco1)C(=O)C1CSCN1C(=O)C1CCC1 (configuration not stated)	13.64
CCOCC(=O)N1CCC2(CC1)COCCN2CCOC	9.273
Cc1nc(N2CCCC(OCc3ccccn3)C2)c2c(C)noc2n1 (configuration not stated)	9.661
Cc1nc(-c2ccsc2)ccc1C(=O)NCCCN1CCOCC1	14.75

5 of the entries, repeated:

CC(C)c1noc(CS(=O)(=O)CC(=O)NCC(F)(F)F)n1 gave 9.893%.
CC(C)(C)C(=O)NCCC1CN(Cc2ccccc2F)CCO1 (configuration not stated) gave 9.317%.
Cc1ccc(Cl)cc1C(=O)N1CCC2(CC1)c1ccccc1[C@@H](N)[C@@H]2O gave 19.2%.
Cc1cc2ccccc2n1CCC(=O)NCCCc1nnc(N)s1 gave 3.683%.
CC(C)OC(=O)N1CCC(Cc2ccc(C(=O)O)cc2)C1 (configuration not stated) gave -1.25%.